In this assay the target is Strep/FLAG SOX11 (mouse) (UniProt Q7M6Y2). In words: affinity purification with mass spectrometry; Strep/FLAG SOX11 transiently expressed in SILAC-labelled Neuro2a cells; anti-Flag M2 agarose beads with nuclear extract, Benzonase added to exclude DNA-mediated interactions; washed in TBS with 0.1% NP40; FLAG peptide elution; three forward and three reverse experiments.

Amino acid sequences for entries named in this document (tags omitted).
UniProt Q7M6Y2: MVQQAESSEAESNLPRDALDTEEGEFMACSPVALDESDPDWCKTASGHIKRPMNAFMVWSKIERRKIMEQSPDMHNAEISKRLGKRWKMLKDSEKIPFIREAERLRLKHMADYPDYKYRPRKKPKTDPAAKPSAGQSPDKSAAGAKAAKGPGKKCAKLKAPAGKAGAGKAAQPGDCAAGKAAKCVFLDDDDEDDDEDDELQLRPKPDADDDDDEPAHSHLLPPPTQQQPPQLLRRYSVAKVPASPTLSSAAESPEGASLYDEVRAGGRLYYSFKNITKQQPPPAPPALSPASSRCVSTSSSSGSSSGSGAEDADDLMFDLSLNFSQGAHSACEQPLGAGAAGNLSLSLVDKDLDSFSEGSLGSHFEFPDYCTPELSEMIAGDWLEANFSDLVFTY
UniProt Q9DBR0: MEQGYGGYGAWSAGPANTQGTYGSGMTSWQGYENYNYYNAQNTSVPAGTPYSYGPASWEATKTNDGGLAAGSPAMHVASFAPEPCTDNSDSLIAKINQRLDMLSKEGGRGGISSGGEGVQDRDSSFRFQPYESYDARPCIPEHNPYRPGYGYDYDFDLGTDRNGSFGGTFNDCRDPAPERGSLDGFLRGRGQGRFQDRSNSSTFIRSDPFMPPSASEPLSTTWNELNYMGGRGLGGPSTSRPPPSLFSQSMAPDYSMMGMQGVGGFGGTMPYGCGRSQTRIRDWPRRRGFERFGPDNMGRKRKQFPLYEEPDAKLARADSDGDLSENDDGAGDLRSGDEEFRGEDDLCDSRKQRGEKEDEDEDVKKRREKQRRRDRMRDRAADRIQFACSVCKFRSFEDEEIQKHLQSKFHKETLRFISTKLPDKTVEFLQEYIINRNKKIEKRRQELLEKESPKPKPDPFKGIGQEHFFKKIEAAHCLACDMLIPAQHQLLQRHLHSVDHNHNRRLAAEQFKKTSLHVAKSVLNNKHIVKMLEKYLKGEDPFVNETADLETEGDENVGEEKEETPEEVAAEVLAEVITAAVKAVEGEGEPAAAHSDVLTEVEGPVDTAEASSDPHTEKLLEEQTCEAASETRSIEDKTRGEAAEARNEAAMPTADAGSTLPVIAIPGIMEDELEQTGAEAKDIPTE
UniProt Q9WTQ5: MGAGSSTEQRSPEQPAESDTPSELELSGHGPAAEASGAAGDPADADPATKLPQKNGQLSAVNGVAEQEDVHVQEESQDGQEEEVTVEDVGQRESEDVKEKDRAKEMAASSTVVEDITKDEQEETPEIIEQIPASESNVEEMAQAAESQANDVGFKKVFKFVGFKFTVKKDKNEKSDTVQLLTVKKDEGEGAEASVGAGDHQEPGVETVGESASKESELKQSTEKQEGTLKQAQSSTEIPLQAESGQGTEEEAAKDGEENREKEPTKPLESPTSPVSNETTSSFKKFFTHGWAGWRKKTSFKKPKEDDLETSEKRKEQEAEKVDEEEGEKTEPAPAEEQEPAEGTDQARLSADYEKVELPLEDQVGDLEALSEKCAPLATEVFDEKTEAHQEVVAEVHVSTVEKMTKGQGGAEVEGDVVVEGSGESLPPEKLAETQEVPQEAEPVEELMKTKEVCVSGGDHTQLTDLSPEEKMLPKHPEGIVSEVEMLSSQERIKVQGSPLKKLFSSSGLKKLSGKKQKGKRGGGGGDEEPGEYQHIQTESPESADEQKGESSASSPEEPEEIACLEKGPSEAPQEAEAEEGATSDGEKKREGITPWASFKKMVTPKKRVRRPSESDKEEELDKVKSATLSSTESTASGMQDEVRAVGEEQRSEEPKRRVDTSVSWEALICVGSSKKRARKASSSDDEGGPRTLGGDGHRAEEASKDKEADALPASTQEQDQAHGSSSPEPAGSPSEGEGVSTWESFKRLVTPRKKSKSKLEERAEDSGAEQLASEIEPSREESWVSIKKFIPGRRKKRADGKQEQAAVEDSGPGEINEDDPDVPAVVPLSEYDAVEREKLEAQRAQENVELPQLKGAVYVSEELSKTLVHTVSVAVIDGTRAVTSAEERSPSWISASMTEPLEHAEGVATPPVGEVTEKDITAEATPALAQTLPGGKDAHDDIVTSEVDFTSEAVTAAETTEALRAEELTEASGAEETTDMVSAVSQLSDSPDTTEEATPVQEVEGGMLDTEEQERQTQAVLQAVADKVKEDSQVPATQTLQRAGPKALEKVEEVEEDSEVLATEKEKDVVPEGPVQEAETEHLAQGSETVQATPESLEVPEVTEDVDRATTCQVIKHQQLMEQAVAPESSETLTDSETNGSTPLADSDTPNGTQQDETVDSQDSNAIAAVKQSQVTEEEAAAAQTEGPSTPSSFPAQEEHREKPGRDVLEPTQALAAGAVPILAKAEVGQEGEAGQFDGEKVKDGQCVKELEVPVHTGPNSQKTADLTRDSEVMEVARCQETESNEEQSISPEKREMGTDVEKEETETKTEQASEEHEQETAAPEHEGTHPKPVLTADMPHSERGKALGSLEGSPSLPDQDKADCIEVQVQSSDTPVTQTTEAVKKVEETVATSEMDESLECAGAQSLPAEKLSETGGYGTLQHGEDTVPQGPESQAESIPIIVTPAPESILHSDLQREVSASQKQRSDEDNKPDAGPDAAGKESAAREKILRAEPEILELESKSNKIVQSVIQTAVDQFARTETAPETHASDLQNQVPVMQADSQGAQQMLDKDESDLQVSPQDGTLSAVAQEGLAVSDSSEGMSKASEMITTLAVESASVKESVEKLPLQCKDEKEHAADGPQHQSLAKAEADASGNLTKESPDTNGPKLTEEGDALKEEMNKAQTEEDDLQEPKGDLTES
UniProt Q9DBC7: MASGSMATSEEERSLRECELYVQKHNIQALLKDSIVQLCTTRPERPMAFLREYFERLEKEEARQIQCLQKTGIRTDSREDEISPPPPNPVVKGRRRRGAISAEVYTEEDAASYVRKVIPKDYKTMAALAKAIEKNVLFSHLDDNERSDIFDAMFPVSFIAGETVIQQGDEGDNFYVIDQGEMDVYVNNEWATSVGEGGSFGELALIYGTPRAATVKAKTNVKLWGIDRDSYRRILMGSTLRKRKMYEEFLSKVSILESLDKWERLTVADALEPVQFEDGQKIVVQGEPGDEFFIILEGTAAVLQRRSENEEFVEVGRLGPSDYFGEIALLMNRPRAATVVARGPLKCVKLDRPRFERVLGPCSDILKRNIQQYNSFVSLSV

The results in this text go back to PMC6212486.

No constants are given. Whether binding was seen depends on the method and setting. In cells and extracts the contact can be indirect. Here binding means that the protein was enriched with, or labelled near, the bait; the list need not be complete.

As for “A-Kinase Anchoring Protein 8 (from UniProt Q9DBR0 1-687)”, the binding result is “binds”. Turning to “A-Kinase Anchoring Protein 12 (from UniProt Q9WTQ5 1-1684)”, the binding entry is “binds”. Next, “Protein Kinase A Type 1a Regulatory Subunit (from UniProt Q9DBC7 1-381)”: “binds”.
